# From patent publication US20230270764A1, “COMPOSITION COMPRISING CANNABINOIDS, TERPENES, AND FLAVONOIDS FOR TREATING DEPRESSION” (priority 2020, published 2023)
# At least one compound was matched to its structure with a doubt left.
# How the values were obtained:
# [1] = tested on: BV2 microglial cells; test: LPS-induced TNFα secretion by BV2 microglia cell cultures (ELISA); format: cell-based, murine; details: Example 7; by themselves
# Description: The BV2 murine microglial cell line is used in these studies.
# The BV2 cells are cultured at 37° C. in a humidified atmosphere with 5% CO2 in high D-glucose (4.5 g/L) Dulbecco’s modified Eagle’s medium (Sigma, Rehovot, Israel) supplemented with 5% heat-inactivated fetal bovine serum, streptomycin (100 µg/ml), and penicillin (100 units/ml) and sodium pyruvate (1 mM; all from Biological Industries Ltd., Kibbutz Beit Haemek, Israel). 24 hours before experiments with LPS stimulation, the BV2 cells are split into 24 well plates, 2×10^5 cells per well, covered with 1 ml of growth medium and allowed to attach overnight. 24 hr before experiments with α-synuclein, the BV2 cells are split into 96-well plates, 50,000 (5×10^4) cells per well, covered with 200 µl of growth medium and allowed to attach overnight. […]
# [2] = tested on: C57BL/6 mice; test: Porsolt forced swim test; format: in vivo; details: CLX 10 mg/kg; CBD 5 mg/kg i.p.
# Description: All experiments were approved by the Hebrew University of Jerusalem Ethics Committee on Animal Care and Use. […] All data are presented as mean ± SEM.
# [3] = tested on: treatment-resistant major depression patients; test: Clinical trial of celecoxib plus CBD in treatment-resistant major depression patients; format: in vivo, human; details: celecoxib or CBD, each by itself
structure (smiles),measurement,setting,value
Cc1ccc(-c2cc(C(F)(F)F)nn2-c2ccc(S(N)(=O)=O)cc2)cc1 [celecoxib],inhibition of LPS-induced TNFα secretion,[1],did not produce significant inhibition
same,"immobility time, each compound by itself",[2],no significant effects
same,"changes in depression, anxiety, anhedonia and subjective improvement",[3],only mild changes
